The values that follow come from patent US20210161923A1, “Prebiotic Compositions And Methods Of Production Thereof” (OPTIBIOTIX LIMITED, priority 2018, published 2021).

A short description of the data set: Sensory profiling (QDA) of oligosaccharide solutions by trained sensory panel. The following applies: for Sweet (mean score 0-100) / Bitter (mean score 0-100) / CandyFloss (mean score 0-100) / Cardboard_/_Stale (mean score 0-100) / CrustyBread (mean score 0-100) / Metallic (mean score 0-100) / Perfume (mean score 0-100) / Salty (mean score 0-100) / Sour/Dairy/Rancid (mean score 0-100) / StrengthOffFlavour (mean score 0-100) / Sweet After Taste (mean score 0-100): 5% w/v in mineral water; for Sweet (mean score 0-100): line scale 0-100 anchored by sucrose standards; for Bitter (mean score 0-100) / CandyFloss (mean score 0-100) / Cardboard_/_Stale (mean score 0-100) / CrustyBread (mean score 0-100) / Metallic (mean score 0-100) / Perfume (mean score 0-100) / Salty (mean score 0-100) / Sour/Dairy/Rancid (mean score 0-100) / StrengthOffFlavour (mean score 0-100) / Sweet After Taste (mean score 0-100): scale 0-100; for Sweet After Taste (mean score 0-100): scored after 30 second delay; for Relative Sweetness (sucrose = 100) (RS), Mean / Relative Sweetness (sucrose = 100) (RS), Min / Relative Sweetness (sucrose = 100) (RS), Max: RS=1/(5/ES)x100; for Relative Sweetness (sucrose = 100) (RS), Mean: 5% w/v saccharide; for Relative Sweetness (sucrose = 100) (RS), Min: from mean minus standard deviation; for Relative Sweetness (sucrose = 100) (RS), Max: from mean plus standard deviation; for Equivalent Sucrose (%) to 5% saccharide, Mean: from mean sweetness rating by sucrose regression equation; for Equivalent Sucrose (%) to 5% saccharide, Min: from mean sweetness rating minus standard deviation; for Equivalent Sucrose (%) to 5% saccharide, Max: from mean sweetness rating plus standard deviation.

As to `OC[C@H]1O[C@@H](O[C@@H]2[C@@H](CO)OC(O)(CO)[C@H]2O)[C@H](O)[C@@H](O)[C@H]1O` (mixture of isomers) [LACTULOSE, lactulose], the “Sweet (mean score 0-100)” value is 56.4, the “Bitter (mean score 0-100)” value was found to be 2.9, the “CandyFloss (mean score 0-100)” value was 9.3 and the “Cardboard_/_Stale (mean score 0-100)” value came to 5.1. The “CrustyBread (mean score 0-100)” value is recorded as 0.0, the “Metallic (mean score 0-100)” value was 2.7, the “Perfume (mean score 0-100)” value turned out to be 1.0 and the “Salty (mean score 0-100)” value was found to be 2.4. Further, the “Sour/Dairy/Rancid (mean score 0-100)” value amounted to 4.9; the “StrengthOffFlavour (mean score 0-100)” value was found to be 26.4; the “Sweet After Taste (mean score 0-100)” value was determined as 33.4; the “Relative Sweetness (sucrose = 100) (RS), Mean” value amounted to 31. Also, the “Relative Sweetness (sucrose = 100) (RS), Min” value came out at 22; the “Relative Sweetness (sucrose = 100) (RS), Max” value is recorded as 40; the “Equivalent Sucrose (%) to 5% saccharide, Mean” value is given as 1.6%; the “Equivalent Sucrose (%) to 5% saccharide, Min” value is given as 1.1%. Also, the “Equivalent Sucrose (%) to 5% saccharide, Max” value amounted to 2.0%.
For the compound `OC[C@H]1O[C@@H](O[C@H]2[C@H](O)[C@@H](O)C(O)O[C@@H]2CO)[C@H](O)[C@@H](O)[C@H]1O` (stereo partly shown) [LACTOSE, lactose], the “Sweet (mean score 0-100)” value amounted to 49.5, the “Bitter (mean score 0-100)” value is 7.5, the “CandyFloss (mean score 0-100)” value was 3.7 and the “Cardboard_/_Stale (mean score 0-100)” value is 9.0. Further, the “CrustyBread (mean score 0-100)” value was 0.6, the “Metallic (mean score 0-100)” value is reported as 3.5, the “Perfume (mean score 0-100)” value came to 0.0 and the “Salty (mean score 0-100)” value is 2.5. The “Sour/Dairy/Rancid (mean score 0-100)” value was found to be 6.9; the “StrengthOffFlavour (mean score 0-100)” value stood at 26.5; the “Sweet After Taste (mean score 0-100)” value is recorded as 30.6; the “Relative Sweetness (sucrose = 100) (RS), Mean” value was 28. The “Relative Sweetness (sucrose = 100) (RS), Min” value is reported as 18; the “Relative Sweetness (sucrose = 100) (RS), Max” value turned out to be 38; the “Equivalent Sucrose (%) to 5% saccharide, Mean” value stood at 1.4%; the “Equivalent Sucrose (%) to 5% saccharide, Min” value came to 0.9%. In addition, the “Equivalent Sucrose (%) to 5% saccharide, Max” value was determined as 1.9%.
